The results in this text go back to PMC8546544.

No constants are given. Whether binding was seen depends on the method and setting. In cells and extracts the contact can be indirect. Binding calls can cover weak binding; strength is not graded here.

The target in this assay is NPC1^P692S-GFP. The assay is described as follows: co-IP; lysate of transfected HEK293T cells (150 mM NaCl, 25 mM Tris-HCl pH 7.6, 1% NP-40) incubated with anti-GFP nanobody affinity gel at 4°C for 4 h; Western blot for the endogenous partner; in one panel cells were untreated, treated with 2.5 mM MβCD or with MβCD plus 20 μg/ml water-soluble cholesterol for 40 min before harvest (MβCD reduced, cholesterol restored the co-precipitate). On the technique in general: Immunoblotting shows a protein as a band on a membrane.

B1: endogenous flotillin 2 (FLOT2) (protein, UniProt Q14254 1-428)
chain: MGNCHTVGPNEALVVSGGCCGSDYKQYVFGGWAWAWWCISDTQRISLEIMTLQPRCEDVETAEGVALTVTGVAQVKIMTEKELLAVACEQFLGKNVQDIKNVVLQTLEGHLRSILGTLTVEQIYQDRDQFAKLVREVAAPDVGRMGIEILSFTIKDVYDKVDYLSSLGKTQTAVVQRDADIGVAEAERDAGIREAECKKEMLDVKFMADTKIADSKRAFELQKSAFSEEVNIKTAEAQLAYELQGAREQQKIRQEEIEIEVVQRKKQIAVEAQEILRTDKELIATVRRPAEAEAHRIQQIAEGEKVKQVLLAQAEAEKIRKIGEAEAAVIEAMGKAEAERMKLKAEAYQKYGDAAKMALVLEALPQIAAKIAAPLTKVDEIVVLSGDNSKVTSEVNRLLAELPASVHALTGVDLSKIPLIKKATGVQV
For B1, the binding entry was “binds”.
